# Hit rate of the full screen: of about 310,000 compounds, about 17,000 (5.5%) were called active. Inconclusive results, whose numbers are uncertain, are shown with a selection of clear calls. Calls follow the shape of the dose curve; as a rule, active = well fitted inhibition curve with a large enough effect; inconclusive = small, poorly fitted or top-dose-only effect, or effect the other way; inactive = no such curve, though single readings can be large or run the other way. Where the call is inconclusive, the potency comes from a doubtful curve fit.
# By UniProt entry, the sequences of proteins in these tests, tags left out. Where a name states a change or a piece, a line headed by the entry shows the natural chain unless it says otherwise.
# UniProt P51450: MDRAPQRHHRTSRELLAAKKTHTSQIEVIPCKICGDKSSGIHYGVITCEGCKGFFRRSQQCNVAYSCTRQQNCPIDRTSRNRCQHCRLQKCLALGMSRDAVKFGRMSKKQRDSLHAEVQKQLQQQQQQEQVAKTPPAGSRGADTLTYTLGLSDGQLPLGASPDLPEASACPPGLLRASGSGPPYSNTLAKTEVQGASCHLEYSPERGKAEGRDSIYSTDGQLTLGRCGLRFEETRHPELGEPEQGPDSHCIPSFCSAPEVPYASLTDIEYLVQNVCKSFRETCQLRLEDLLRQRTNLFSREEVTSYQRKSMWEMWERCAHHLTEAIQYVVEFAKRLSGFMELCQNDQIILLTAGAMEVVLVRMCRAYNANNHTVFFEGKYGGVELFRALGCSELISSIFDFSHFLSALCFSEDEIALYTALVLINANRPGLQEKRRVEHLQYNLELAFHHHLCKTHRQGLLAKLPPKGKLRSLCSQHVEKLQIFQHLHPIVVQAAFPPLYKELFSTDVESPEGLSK
# Target: Nuclear receptor ROR-gamma (Mus musculus) (UniProt P51450)
# Assay: qHTS for inhibitors of ROR gamma transcriptional activity; also: nearly all actives have a fitted effect of over 60% in size
# Conditions: Drosophila S2 Gal4-RORgamma UAS-luciferase reporter, 20 h; series mostly up to 53.6 µM
# Outline: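 Schneider cells (Drosophila), stable Gal4 DBD–ROR gamma + UAS-luc; 1 hr cmpd preincubation; Cu2+ induction 700 uM final; 20 hr ambient; luminescence.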
# Potency is read from the fitted curve at half-maximal effect.
row,Compound,Potency
1,Clc1nnc(NN=C2CCCC2)c2ccccc12,active: 8.91 µM
2,O=C(CCCN1C(=O)c2ccccc2C1=O)OC1CSCC1NC(=O)c1ccccc1 (stereo unspecified),inactive
3,CCc1ccc(NC(=O)C2CCN(S(=O)(=O)c3cccs3)CC2)cc1,"inconclusive: 1.12 µM [activator, full curve, poor fit]"
4,O=C(NCc1cccc(Cl)c1)c1ccc(CS(=O)Cc2ccccc2Cl)o1 (stereo unspecified),"inconclusive: 20 µM [activator, single point]"
5,c1ccc(-c2ccc(SCc3cccnc3)nn2)nc1,"inconclusive: 15.8 µM [inhibitor, single point]"
6,O=C(Nc1ccc(NC(=S)NC(=O)c2ccco2)cc1)c1ccccc1,"inconclusive: 35.5 µM [inhibitor, single point]"
7,NC(=O)CC(NC(=O)Cc1ccc(Br)cc1)c1ccc(N2CCC(Cc3ccccc3)CC2)c([N+](=O)[O-])c1 (stereo unspecified),"inconclusive: 35.5 µM [inhibitor, single point]"
8,COc1ccc(/C=C2\CN(Cc3ccccc3)C/C(=C\c3ccc(OC)c(O)c3)C2=O)cc1O,active: 15.8 µM
9,Cn1c(CNC(=O)c2ccccc2)nnc1SCC(=O)N1CCN(c2ccccc2)CC1,"inconclusive: 25.1 µM [activator, single point]"
10,Cc1ccc(C)c(N2CCN(C(=O)c3ccc(CSc4nc5ccncc5[nH]4)cc3)CC2)c1,"inconclusive: 25.1 µM [activator, single point]"
11,O=C(/C=C/c1ccccc1)N(Cc1ccc(Cl)cc1)C1CCS(=O)(=O)C1 (stereo unspecified),"inconclusive: 20 µM [activator, single point]"
12,COc1ccc(-n2cc(-c3ccccc3)[n+]3c2CCCCC3)cc1,inactive
13,CC(=O)NC(=S)NNC(=O)C(c1ccccc1)c1ccccc1,active: 6.31 µM
14,O=C(Cc1cccc2ccccc12)OCn1nnc2ccccc2c1=O,inactive
15,COc1ccccc1NC(=S)NCCSc1ccc(C)cc1,active: 12.6 µM
16,O=C(CCCSc1nc2ccccc2[nH]1)NCc1ccccc1Cl,"inconclusive: 5.62 µM [activator, full curve]"
17,OC1(c2cccc(C(F)(F)F)c2)CCN(c2ncnc3c2[nH]c2ccc(F)cc23)CC1,"inconclusive: 12.6 µM [inhibitor, single point]"
18,FC(F)(F)c1ccc(-n2cn[nH]c2=S)cc1,active: 10 µM
19,Fc1ccc(N2N=C(c3cccs3)CC2c2ccco2)c(F)c1 (stereo unspecified),"inconclusive: 14.1 µM [activator, single point]"
20,c1ccc(-c2nc(-n3ccnc3)nc(-n3ccnc3)n2)cc1,"inconclusive: 6.31 µM [activator, full curve, poor fit]"
21,Cc1cccc([C@@H]2C[C@H]3CN(Cc4cccc(Cl)c4)C(=O)[C@]34CCCN24)n1,inactive
22,O=S(=O)(O)c1cc(O)c2c(O)c(N=Nc3cc(Cl)ccc3O)c(S(=O)(=O)O)cc2c1,"inconclusive: 10 µM [inhibitor, partial curve]"
23,Clc1ccc2nc(CSc3nc4ccccc4o3)cn2c1,"inconclusive: 14.1 µM [inhibitor, single point]"
24,O=C(CCCCCn1c(=S)[nH]c2ccc(N3CCOCC3)cc2c1=O)NCc1ccc(Cl)cc1,"inconclusive: 15.8 µM [inhibitor, single point]"

# Copied from above for reference:
row,Compound,Potency
20,c1ccc(-c2nc(-n3ccnc3)nc(-n3ccnc3)n2)cc1,"inconclusive: 6.31 µM [activator, full curve, poor fit]"
21,Cc1cccc([C@@H]2C[C@H]3CN(Cc4cccc(Cl)c4)C(=O)[C@]34CCCN24)n1,inactive
22,O=S(=O)(O)c1cc(O)c2c(O)c(N=Nc3cc(Cl)ccc3O)c(S(=O)(=O)O)cc2c1,"inconclusive: 10 µM [inhibitor, partial curve]"
23,Clc1ccc2nc(CSc3nc4ccccc4o3)cn2c1,"inconclusive: 14.1 µM [inhibitor, single point]"
24,O=C(CCCCCn1c(=S)[nH]c2ccc(N3CCOCC3)cc2c1=O)NCc1ccc(Cl)cc1,"inconclusive: 15.8 µM [inhibitor, single point]"

# The list continues.

row,Compound,Potency
1,CCCCCCCN(C(=O)CCl)c1ccccc1C,"inconclusive: 31.6 µM [inhibitor, single point]"
2,O=C1CC(N2CCN(C(c3ccccc3)c3ccccc3)CC2)C(=O)N1Cc1ccc(N2CCCC2=O)cc1 (stereo unspecified),"inconclusive: 31.6 µM [activator, single point]"
3,CC(=O)N1CCC(N(CCN2CCOCC2)C(=S)Nc2ccc(C)c(C)c2)CC1,"inconclusive: 12.6 µM [inhibitor, partial curve, poor fit]"
4,COc1ccc(C2=CC(c3cc(OC)c(OC)c(OC)c3)NC(=S)N2)cc1 (stereo unspecified),active: 12.6 µM
5,CC(C)(C)C(=O)NC1=NN(c2c(Cl)cc(Cl)cc2Cl)C(=O)C1,"inconclusive: 11.2 µM [activator, partial curve]"
6,CCOC(=O)c1c(CC(C)C)csc1NC(C)=O,inactive
7,O=C1C2C(c3ccccc3)CC=CC2C(c2cccc(Br)c2)N1Cc1ccccc1 (stereo unspecified),"inconclusive: 12.6 µM [activator, partial curve]"
8,COc1cc(/C=N/N2CCN(Cc3ccc(Cl)cc3)CC2)ccc1OC(C)=O,"inconclusive: 20 µM [activator, single point]"
9,Cc1ccccc1NC(=O)CSc1nc2c(c(-c3ccco3)c1C#N)CCCC2,"inconclusive: 5.62 µM [inhibitor, single point]"
10,CCCC[C@@H]1CNC(=S)N1CCC12CC3CC(CC(C3)C1)C2,active: 0.562 µM
11,CC(C)Nc1nc(NC(N)=S)nc(NC(C)(C)C)n1,active: 11.2 µM
12,Cc1ccc(-c2ocnc2C(=O)Nc2ccccc2NC(=O)c2ccccn2)cc1,active: 1.58 µM
13,O=C1C[C@@H]2CCN3C(=O)CCC[C@@H]([C@H]23)[C@@H]1Cc1ccccc1,inactive
14,O=C(c1ccc(F)cc1)c1c[nH]c(C(=O)NCc2ccco2)c1,"inconclusive: 0.112 µM [activator, full curve, poor fit]"
15,Cc1ccc(CNC(=O)Cc2csc(Nc3nc(=S)[nH]c4ccccc34)n2)cc1,active: 1.41 µM
16,O=C(Nc1ccccc1)c1ccc(S(=O)(=O)Nc2cccc(O)c2)cc1,"inconclusive: 14.1 µM [activator, single point]"
17,Cc1nc(-c2ccccc2)c(-c2ccccc2)[nH]1,"inconclusive: 6.31 µM [activator, single point]"
18,Oc1ccc(/C=C\c2cc(O)cc(O)c2)cc1,active: 3.55 µM
19,Nc1cccc(C2=Nc3cccc4cccc(c34)N2)c1,inactive
20,CC1=C(C(=O)OCc2ccccc2)C(c2ccc3ccccc3c2)NC(=O)N1CCCC(=O)O (stereo unspecified),active: 11.2 µM
21,COc1cccc(CN2CC(C(=O)NCCCCc3ccccn3)CCC2=O)c1 (stereo unspecified),inactive
22,Cc1sc(N/N=C/c2ccco2)nc1-c1ccccc1,active: 11.2 µM
23,COc1ccccc1CNc1ncnc2ccc(-c3cccc(NS(C)(=O)=O)c3)cc12,"inconclusive: 12.6 µM [activator, partial curve]"
24,CC(=O)CCc1ccc(OCCCOc2cccc3cccnc23)cc1,"inconclusive: 22.4 µM [activator, single point]"

row,Compound,Potency
1,COc1ccc(/C(O)=C2\C(=O)C(=O)N(CCN(C)C)C2c2cc(OC)c(OC)c(OC)c2)c(C)c1 (stereo unspecified),inactive
2,CCCCN(CC)S(=O)(=O)c1ccc(C(=O)N=c2sc3cc(NC(C)=O)ccc3n2C)cc1,"inconclusive: 35.5 µM [activator, single point]"
3,COC(=O)c1cccc(NC(=O)Cc2nc(-c3ccccc3)sc2-c2ccc(C)cc2)c1,"inconclusive: 22.4 µM [activator, single point]"
4,COc1ccc(NS(=O)(=O)c2ccc(O)c(C(=O)OCC(=O)Nc3ccc4c(c3)OCCO4)c2)cc1,"inconclusive: 5.62 µM [activator, full curve]"
5,Fc1ccccc1CNC(=S)Nc1ccc(Cl)cc1,active: 7.08 µM
6,CCOC(=O)C1CCCN(Cc2nc(N)nc(Nc3ccccc3OC)n2)C1 (stereo unspecified),"inconclusive: 11.2 µM [inhibitor, single point]"
7,CCOC(=O)c1sc(NC(=O)c2ccccc2)cc1C,"inconclusive: 6.31 µM [activator, single point]"
8,C=C1C(=CC=C2CCC[C@@]3(C)[C@@H]2CC[C@H]3[C@H](C)CCCC(C)C)C[C@@H](O)C[C@@H]1O,active: 12.6 µM
9,O=C(O)c1ccc(Nc2ccc(F)c(F)c2)c([N+](=O)[O-])c1,inactive
10,Cc1ccc2c3c([nH]c2c1C)-c1nonc1CC3,"inconclusive: 12.6 µM [activator, partial curve, poor fit]"
11,Cc1cc(C)n(CCc2nc(-c3ccc(C(C)(C)C)cc3)cs2)n1,"inconclusive: 31.6 µM [inhibitor, single point]"
12,COc1ccc(-n2cc(-c3ccc(Br)cc3)[nH]c2=S)cc1,active: 1.78 µM
13,CCc1ccccc1NC(=S)NCc1ccc2c(c1)OCO2,active: 6.31 µM
14,O=C(Cc1ccc(Br)cc1)Nc1ccc(S(=O)(=O)N2CCCC2)cc1,"inconclusive: 10 µM [activator, partial curve]"
15,COc1ccc(-c2nc(N/N=C(\C)c3ccc(O)cc3)c3ccccc3n2)cc1,inactive
16,O=C(Cn1c(=O)[nH]c2ccsc2c1=O)NC1CCCCCC1,"inconclusive: 6.31 µM [activator, single point]"
17,Cc1ccccc1C(=O)NC(=S)NCc1cccnc1,inactive
18,CC(=O)c1cccc(NC(=S)NC(=O)CC(C)C)c1,"inconclusive: 22.4 µM [inhibitor, single point]"
19,Cc1cccc(-n2c(O)c(C=Nc3ccccc3-c3n[nH]c(=S)[nH]c3=O)c3ccccc3c2=O)n1,"inconclusive: 7.08 µM [activator, partial curve]"
20,Cc1nn(Cc2ccc(C(=O)Nc3ccc(C(=O)OC(C)C)cc3)o2)c(C)c1Cl,active: 1.58 µM
21,CCC(C(=O)NC1CCCC1)N(C(=O)Cn1nnc(-c2ccc(C)o2)n1)c1cccc(O)c1 (stereo unspecified),"inconclusive: 11.2 µM [activator, single point]"
22,CCCc1cc2c(=O)c(-c3ccc4c(c3)OCCO4)coc2cc1OS(C)(=O)=O,"inconclusive: 5.01 µM [activator, single point]"
23,O=C(COC(=O)c1ccccc1Nc1ccc(SC(F)F)cc1)NC1CC1,"inconclusive: 0.708 µM [activator, single point]"

# Reference: PubChem BioAssay AID2551 (National Center for Advancing Translational Sciences (NCATS), 2010)
